Experimental data: PubChem BioAssay AID1508597 (Cure First, 2020)
Shown is an unselected part of about 2,100 reagents tested. 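Calls flag viability under 80% in either arm, not effects specific to rucaparib; the reference for percent is not stated.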 Not stated in the record: the 100% reference.

- Test: 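Survival screen with siRNA in ovarian cancer cells derived from patients, with or without rucaparib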 (primary screen)
- Cell system: human ovarian carcinoma lines grown from tumours: OCI-P5x (papillary serous) and OCI-C5x (clear cell)
- Reagent: siRNA pool against human genes, 1.25 pmol siRNA per well
- Time to read-out: 72 h or 96 h, depending on the cell culture
- Conditions: rucaparib 20 µM (about IC30) or vehicle, present until read-out
- Measurement: 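ATP luminescence measured at 72 or 96 h according to the culture, then normalised and expressed as percent viability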
- Scale: viability, normalised: higher = more viable cells remaining
- Active means: 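a well counts as a hit if its normalised viability is under 80 percent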
- Meaning of the calls: active = viability under 80%; inactive = viability 80% or more

MYBL1 [SID405527043], rucaparib or vehicle Rucaparib, cell line OCI-C5x (clear cell), technical replicate 1 → viability, normalised (%): 51.7; activity call: active
MYBL1 [SID405527043], rucaparib or vehicle Rucaparib, cell line OCI-C5x (clear cell), technical replicate 2 → viability, normalised (%): 49.2; activity call: active
MYBL1 [SID405527043], rucaparib or vehicle Rucaparib, cell line OCI-C5x (clear cell), technical replicate 3 → viability, normalised (%): 49.3; activity call: active
MYBL1 [SID405527043], rucaparib or vehicle Rucaparib, cell line OCI-P5x (serous), technical replicate 1 → viability, normalised (%): 56.1; activity call: active
MYBL1 [SID405527043], rucaparib or vehicle Rucaparib, cell line OCI-P5x (serous), technical replicate 2 → viability, normalised (%): 49.8; activity call: active
MYBL1 [SID405527043], rucaparib or vehicle Rucaparib, cell line OCI-P5x (serous), technical replicate 3 → viability, normalised (%): 56.9; activity call: active
MYBL1 [SID405527043], rucaparib or vehicle Vehicle, cell line OCI-C5x (clear cell), technical replicate 1 → viability, normalised (%): 60.9; activity call: active
MYBL1 [SID405527043], rucaparib or vehicle Vehicle, cell line OCI-C5x (clear cell), technical replicate 2 → viability, normalised (%): 59.5; activity call: active
MYBL1 [SID405527043], rucaparib or vehicle Vehicle, cell line OCI-C5x (clear cell), technical replicate 3 → viability, normalised (%): 58.6; activity call: active
MYBL1 [SID405527043], rucaparib or vehicle Vehicle, cell line OCI-P5x (serous), technical replicate 1 → viability, normalised (%): 55.4; activity call: active
MYBL1 [SID405527043], rucaparib or vehicle Vehicle, cell line OCI-P5x (serous), technical replicate 2 → viability, normalised (%): 56.3; activity call: active
MYBL1 [SID405527043], rucaparib or vehicle Vehicle, cell line OCI-P5x (serous), technical replicate 3 → viability, normalised (%): 59.2; activity call: active
IFI6 [SID405526887], rucaparib or vehicle Rucaparib, cell line OCI-C5x (clear cell), technical replicate 1 → viability, normalised (%): 26.5; activity call: active
IFI6 [SID405526887], rucaparib or vehicle Rucaparib, cell line OCI-C5x (clear cell), technical replicate 2 → viability, normalised (%): 24; activity call: active
IFI6 [SID405526887], rucaparib or vehicle Rucaparib, cell line OCI-C5x (clear cell), technical replicate 3 → viability, normalised (%): 27.5; activity call: active
IFI6 [SID405526887], rucaparib or vehicle Rucaparib, cell line OCI-P5x (serous), technical replicate 1 → viability, normalised (%): 36.7; activity call: active
IFI6 [SID405526887], rucaparib or vehicle Rucaparib, cell line OCI-P5x (serous), technical replicate 2 → viability, normalised (%): 42; activity call: active
IFI6 [SID405526887], rucaparib or vehicle Rucaparib, cell line OCI-P5x (serous), technical replicate 3 → viability, normalised (%): 45; activity call: active
IFI6 [SID405526887], rucaparib or vehicle Vehicle, cell line OCI-C5x (clear cell), technical replicate 1 → viability, normalised (%): 26.4; activity call: active
IFI6 [SID405526887], rucaparib or vehicle Vehicle, cell line OCI-C5x (clear cell), technical replicate 2 → viability, normalised (%): 32; activity call: active
IFI6 [SID405526887], rucaparib or vehicle Vehicle, cell line OCI-C5x (clear cell), technical replicate 3 → viability, normalised (%): 35.6; activity call: active
IFI6 [SID405526887], rucaparib or vehicle Vehicle, cell line OCI-P5x (serous), technical replicate 1 → viability, normalised (%): 44.6; activity call: active
IFI6 [SID405526887], rucaparib or vehicle Vehicle, cell line OCI-P5x (serous), technical replicate 2 → viability, normalised (%): 53.7; activity call: active
IFI6 [SID405526887], rucaparib or vehicle Vehicle, cell line OCI-P5x (serous), technical replicate 3 → viability, normalised (%): 47.8; activity call: active
CCNE1 [SID405526379], rucaparib or vehicle Rucaparib, cell line OCI-C5x (clear cell), technical replicate 1 → viability, normalised (%): 57.9; activity call: active
CCNE1 [SID405526379], rucaparib or vehicle Rucaparib, cell line OCI-C5x (clear cell), technical replicate 2 → viability, normalised (%): 75.5; activity call: active
CCNE1 [SID405526379], rucaparib or vehicle Rucaparib, cell line OCI-C5x (clear cell), technical replicate 3 → viability, normalised (%): 73.6; activity call: active
CCNE1 [SID405526379], rucaparib or vehicle Rucaparib, cell line OCI-P5x (serous), technical replicate 1 → viability, normalised (%): 20.4; activity call: active
CCNE1 [SID405526379], rucaparib or vehicle Rucaparib, cell line OCI-P5x (serous), technical replicate 2 → viability, normalised (%): 43; activity call: active
CCNE1 [SID405526379], rucaparib or vehicle Rucaparib, cell line OCI-P5x (serous), technical replicate 3 → viability, normalised (%): 49.9; activity call: active
CCNE1 [SID405526379], rucaparib or vehicle Vehicle, cell line OCI-C5x (clear cell), technical replicate 1 → viability, normalised (%): 53.2; activity call: active
CCNE1 [SID405526379], rucaparib or vehicle Vehicle, cell line OCI-C5x (clear cell), technical replicate 2 → viability, normalised (%): 69.2; activity call: active
CCNE1 [SID405526379], rucaparib or vehicle Vehicle, cell line OCI-C5x (clear cell), technical replicate 3 → viability, normalised (%): 67.1; activity call: active
CCNE1 [SID405526379], rucaparib or vehicle Vehicle, cell line OCI-P5x (serous), technical replicate 1 → viability, normalised (%): 44.2; activity call: active
CCNE1 [SID405526379], rucaparib or vehicle Vehicle, cell line OCI-P5x (serous), technical replicate 2 → viability, normalised (%): 49.2; activity call: active
CCNE1 [SID405526379], rucaparib or vehicle Vehicle, cell line OCI-P5x (serous), technical replicate 3 → viability, normalised (%): 49.3; activity call: active
PIP4K2B [SID405527708], rucaparib or vehicle Rucaparib, cell line OCI-C5x (clear cell), technical replicate 1 → viability, normalised (%): 54.8; activity call: active
PIP4K2B [SID405527708], rucaparib or vehicle Rucaparib, cell line OCI-C5x (clear cell), technical replicate 2 → viability, normalised (%): 42.9; activity call: active
PIP4K2B [SID405527708], rucaparib or vehicle Rucaparib, cell line OCI-C5x (clear cell), technical replicate 3 → viability, normalised (%): 61.5; activity call: active
PIP4K2B [SID405527708], rucaparib or vehicle Rucaparib, cell line OCI-P5x (serous), technical replicate 1 → viability, normalised (%): 70.9; activity call: active
PIP4K2B [SID405527708], rucaparib or vehicle Rucaparib, cell line OCI-P5x (serous), technical replicate 2 → viability, normalised (%): 69.6; activity call: active
PIP4K2B [SID405527708], rucaparib or vehicle Rucaparib, cell line OCI-P5x (serous), technical replicate 3 → viability, normalised (%): 68; activity call: active
PIP4K2B [SID405527708], rucaparib or vehicle Vehicle, cell line OCI-C5x (clear cell), technical replicate 1 → viability, normalised (%): 57.9; activity call: active
PIP4K2B [SID405527708], rucaparib or vehicle Vehicle, cell line OCI-C5x (clear cell), technical replicate 2 → viability, normalised (%): 64.1; activity call: active
PIP4K2B [SID405527708], rucaparib or vehicle Vehicle, cell line OCI-C5x (clear cell), technical replicate 3 → viability, normalised (%): 58.9; activity call: active
PIP4K2B [SID405527708], rucaparib or vehicle Vehicle, cell line OCI-P5x (serous), technical replicate 1 → viability, normalised (%): 81.8; activity call: inactive
PIP4K2B [SID405527708], rucaparib or vehicle Vehicle, cell line OCI-P5x (serous), technical replicate 2 → viability, normalised (%): 80.1; activity call: inactive
PIP4K2B [SID405527708], rucaparib or vehicle Vehicle, cell line OCI-P5x (serous), technical replicate 3 → viability, normalised (%): 55.1; activity call: active
